Assay results reported in PubChem BioAssay AID602313 (National Center for Advancing Translational Sciences (NCATS), 2012).
Out of some 390,000 compounds screened, about 760 (0.19%) were called active. Inconclusive means that the source gave no clear call. Such entries were picked first, then a sample of the others. Calls come from the whole dose curve; as a rule, active = well fitted inhibition curve with a large enough effect; inconclusive = small, poorly fitted or top-dose-only effect; inactive = flat fitted curve, though single readings scatter. Potencies of inconclusive entries are doubtful fits and often do not repeat.

test: qHTS for Inhibitors of Vif-A3F Interactions: qHTS; conditions: HeLa A3F-eYFP + Vif (tagged APOBEC3F with the HIV-1 protein that degrades it), YFP fluorescence increase; series mostly up to 46.1 µM; activity, negative = active: at the top concentration; note: nearly all actives have a fitted effect of over 65% in size; for activity, negative = active: % of control where 0% means no effect
Summary of the method: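 HeLa cells stably expressing A3F-eYFP plus Vif, plated and incubated overnight at 37 deg C, then exposed to compounds overnight at 37 deg C. Blocked degradation read as raised yellow fluorescence (Ex 488/Em 500-530).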
Potency is the fitted concentration of half-maximal effect.

Question: Which “activity, negative = active” value does the source give for `CCCN(C(=O)COC(=O)CSc1ccc([N+](=O)[O-])cc1)C1CCS(=O)(=O)C1` (stereo unspecified) here?
Answer: inactive: -31.2%

Question: For `CCN(CC)c1ccc(/C=C(/C#N)c2nc3ccccc3[nH]2)c(OC(C)C)c1`, which Potency is on record?
Answer: inconclusive: 1.78 µM [inhibitor, full curve, poor fit]

Question: Which “activity, negative = active” value does the source give for `CCc1ccc(NC(=O)c2sc3nc(C)c(Cl)c(C)c3c2NC(=O)c2ccccc2)cc1` here?
Answer: inactive: -3.5%

Question: For `Cc1nc(C#N)c(N/N=C/c2c(F)cccc2Cl)o1`, which “activity, negative = active” value is on record?
Answer: inactive: -12.1%

Question: For `Nc1ccc2cc3[nH]c4cc(N)ccc4c3nc2c1`, which “activity, negative = active” value is on record?
Answer: inactive: -39.4%

Question: With `COc1cccc(CNc2nc3c(-c4cccc(C)c4)nnn3c3ccccc23)c1` as the compound, how does the “activity, negative = active” value read?
Answer: inactive: 2.33%

Question: For `CCOc1ccccc1Nc1ccc(C(=O)O)cc1N`, which Potency is on record?
Answer: inconclusive: 3.16 µM [inhibitor, partial curve, poor fit]

Question: Which “activity, negative = active” value does the source give for `CN(Cc1ccccc1)C(=O)c1cccc(N2C(=O)C3CC=CCC3C2=O)c1` (stereo unspecified) here?
Answer: inactive: -0.177%

Question: With `COc1ccc(CNC(=O)CSc2ccsc2[N+](=O)[O-])cc1` as the compound, how does the “activity, negative = active” value read?
Answer: inactive: 1.4%

Question: Which Potency does the source give for `O=C1NC[C@H](Cc2ccccc2)N(C[C@H]2CCCN2C[C@H](Cc2ccccc2)N2C[C@H](Cc3ccccc3)N(CC3CCCCC3)C(=O)C2=O)C1=O` here?
Answer: inconclusive: 25.1 µM [inhibitor, single point]

Question: With `Clc1ccc(Nc2ncnc3c2cnn3-c2ccccc2)cc1` as the compound, how does the Potency read?
Answer: inconclusive: 35.5 µM [inhibitor, single point]

Question: For `Cc1cc(OCC(=O)NCCCN(C)C)cc(C)c1Br`, which Potency is on record?
Answer: inconclusive: 3.98 µM [inhibitor, single point]

Question: For `CCOc1cccc(-c2nn(-c3ccccc3)cc2/C=C(/C#N)C(=O)NCCCn2ccnc2)c1`, which Potency is on record?
Answer: inconclusive: 2.51 µM [inhibitor, partial curve, poor fit]

Question: Which Potency does the source give for `N=C(N)SCc1ccccn1` here?
Answer: inconclusive: 35.5 µM [inhibitor, single point]

Question: With `O=C1NC(c2ccccc2OC(F)F)Oc2ccccc21` (stereo unspecified) as the compound, how does the Potency read?
Answer: inconclusive: 6.31 µM [inhibitor, single point]

Question: For `CCCCCOC(=O)c1[nH]c2c(c1C)C(=O)CC(c1ccco1)C2` (stereo unspecified), which “activity, negative = active” value is on record?
Answer: inactive: -25.5%

Question: For `Cc1cccc(C)c1NC(=O)NC1(C(=O)NCc2ccncc2)CCCCC1`, which Potency is on record?
Answer: inconclusive: 35.5 µM [inhibitor, single point]

Question: For `CCN(CC)Cc1c(O)ccc2c1O/C(=C\C=C\c1ccccc1)C2=O`, which Potency is on record?
Answer: inconclusive: 31.6 µM [inhibitor, single point]

Question: For `N#Cc1sc2nc(-c3ccccc3)cc(C(F)(F)F)c2c1N`, which Potency is on record?
Answer: inconclusive: 2.51 µM [inhibitor, partial curve, poor fit]

Question: For `CCCCCn1c(-c2cccc(C)c2)nc2ccccc21`, which Potency is on record?
Answer: inconclusive: 22.4 µM [inhibitor, single point]

Question: Which Potency does the source give for `CC1CN(c2nc3ccccc3nc2C(C#N)C(=O)NCc2ccc3c(c2)OCO3)CC(C)O1` (stereo unspecified) here?
Answer: inconclusive: 35.5 µM [inhibitor, partial curve, poor fit]

Question: For `COc1ccc(OC)c(CCNC(=O)C(C)n2c(C)c3cnn(-c4ccccc4)c(=O)c3c2C)c1` (stereo unspecified), which “activity, negative = active” value is on record?
Answer: inactive: 9.54%

Question: For `Cc1cn([C@H]2C[C@H](O)[C@@H](CNCc3cccn3-c3ccncc3)O2)c(=O)[nH]c1=O`, which “activity, negative = active” value is on record?
Answer: inactive: 2.75%

Question: With `O=C1COc2cc(S(=O)(=O)CCC(=O)N3CCN(c4ccccc4)CC3)c(Cl)cc2N1` as the compound, how does the “activity, negative = active” value read?
Answer: inactive: 2.07%

Question: Which “activity, negative = active” value does the source give for `ON=C1C2CC=C(c3ccccc3)C1CCC2` (stereo unspecified) here?
Answer: inactive: -9.91%

Question: Which Potency does the source give for `Cc1ccccc1NC(=O)Cn1cnc2c(oc3nc4c(cc32)CCCC4)c1=O` here?
Answer: inconclusive: 22.4 µM [inhibitor, single point]

Question: Which Potency does the source give for `Cc1ccc(NC(=S)Nc2ccccn2)cc1C` here?
Answer: inconclusive: 3.16 µM [inhibitor, partial curve, poor fit]

Question: For `COc1ccc(CNC(=O)c2sc(=S)n(-c3ccccc3)c2N)cc1`, which Potency is on record?
Answer: inconclusive: 3.98 µM [inhibitor, single point]

Question: For `O=c1[nH]c(/C=C/c2ccc(Cl)cc2Cl)c([N+](=O)[O-])c(=O)[nH]1`, which “activity, negative = active” value is on record?
Answer: inactive: -0.159%

Question: With `CC(=O)Nc1ccc2nc(SCC(=O)NCCOc3ccccc3)sc2c1` as the compound, how does the “activity, negative = active” value read?
Answer: inactive: -1.33%

Question: With `CCN1/C(=C/C=C2/SC(=Nc3cccc4ncccc34)N(C)C2=O)Sc2ccccc21` as the compound, how does the Potency read?
Answer: active: 3.55 µM

Question: With `CC1/C(=C\c2ccc(Cl)cc2)C(=O)C2CC1C2(C)C` (stereo unspecified) as the compound, how does the Potency read?
Answer: inconclusive: 15.8 µM [inhibitor, single point]

Question: For `CCOc1ccc(NC(=O)Cn2cc(C(=O)c3ccccc3)c(=O)c3cc4c(cc32)OCO4)cc1`, which Potency is on record?
Answer: inconclusive: 25.1 µM [inhibitor, single point]

Question: For `CC(Oc1ccc2ccc(=O)oc2c1)C(=O)c1ccccc1` (stereo unspecified), which “activity, negative = active” value is on record?
Answer: inactive: -5.04%

Question: For `CC1=C(C(N)=O)C(c2cccc(C)c2)n2nc(-c3cccc(C)c3)nc2N1` (stereo unspecified), which “activity, negative = active” value is on record?
Answer: inactive: 4.65%

Question: Which Potency does the source give for `Cn1c2ccccc2c2cc(/C=C(\NC(=O)c3ccccc3)C(=O)NCC(=O)O)ccc21` here?
Answer: inconclusive: 35.5 µM [inhibitor, single point]

Question: For `CCN(CC)S(=O)(=O)c1ccc2c(c1)c(=O)c(C(=O)N1CCc3ccccc3C1)cn2C`, which Potency is on record?
Answer: inconclusive: 12.6 µM [inhibitor, partial curve, poor fit]

Question: For `NNC(=O)/C(=C\c1ccco1)NC(=O)c1ccco1`, which “activity, negative = active” value is on record?
Answer: inactive: -14.6%

Question: With `COC(=O)C1=C(C)N=c2s/c(=C/c3ccoc3)c(=O)n2C1c1ccccc1` (stereo unspecified) as the compound, how does the Potency read?
Answer: inconclusive: 15.8 µM [inhibitor, partial curve, poor fit]

Question: For `COc1ccc(CNC(=O)c2ccc3c(c2)N(Cc2ccccc2C)C(=O)c2ccccc2S3=O)cc1` (stereo unspecified), which “activity, negative = active” value is on record?
Answer: inactive: 3.7%

Question: For `CCN1C(=O)C(CC(=O)Nc2ccc(OC)cc2)N(CCCN2CCN(c3ccc(F)cc3)CC2)C1=S` (stereo unspecified), which Potency is on record?
Answer: inconclusive: 2.82 µM [inhibitor, partial curve, poor fit]

Question: For `COc1ccc(/C=C/C(=O)C2CC2)cc1COc1cccc(C)c1C`, which “activity, negative = active” value is on record?
Answer: inactive: -4.66%

Question: Which Potency does the source give for `COc1ccc(C(OC(=O)c2ccco2)C(=O)NC2CCCC2)cc1` (stereo unspecified) here?
Answer: inconclusive: 0.794 µM [inhibitor, full curve, poor fit]

Question: For `O=C1ON=C(c2ccccc2)/C1=C/c1ccc(-c2ccccc2[N+](=O)[O-])o1`, which “activity, negative = active” value is on record?
Answer: inactive: 0.203%

Question: Which Potency does the source give for `COc1cc(/C=C2\SC(=S)N(C(C(=O)O)c3ccccc3)C2=O)ccc1O` (stereo unspecified) here?
Answer: inconclusive: 35.5 µM [inhibitor, single point]

Question: Which “activity, negative = active” value does the source give for `NCCCNC(=O)Cn1c(=O)c2c3c(sc2n(Cc2ccccc2)c1=O)CCCC3` here?
Answer: inactive: 0.682%

Question: For `O=c1ccn(Cc2ccccc2)c(=O)n1Cc1ccccc1`, which “activity, negative = active” value is on record?
Answer: inactive: -3.58%

Question: With `Cc1ccc(O)c(CNc2cccc3cccnc23)c1` as the compound, how does the “activity, negative = active” value read?
Answer: inactive: -9.82%

Question: For `O=C(CCN=C1NS(=O)(=O)c2ccccc21)OCc1cccc(Cl)c1`, which Potency is on record?
Answer: inconclusive: 6.31 µM [inhibitor, single point]

Question: Which Potency does the source give for `CCCCNc1c(-c2ccc(OC)c(SC3CCCCC3)c2)nc2ccc(C)cn12` here?
Answer: inconclusive: 22.4 µM [inhibitor, single point]

Question: Which Potency does the source give for `CCn1c(O)c(/C=C2\C=Nc3ccccc32)sc1=Nc1ccc(C)cc1` here?
Answer: inconclusive: 28.2 µM [inhibitor, single point]

Question: Which Potency does the source give for `C[C@H](NC(=O)c1ccccc1)C(=O)Nc1nc(-c2ccccn2)cs1` here?
Answer: inconclusive: 22.4 µM [inhibitor, single point]

Question: With `CCc1c(O)nc(SCC(=O)Nc2ccc3c(c2)CCC3)[nH]c1=O` as the compound, how does the Potency read?
Answer: inconclusive: 7.08 µM [inhibitor, full curve, poor fit]

Question: With `Cc1noc(C)c1S(=O)(=O)N1CCN(c2ccccc2Cl)CC1` as the compound, how does the Potency read?
Answer: inconclusive: 12.6 µM [inhibitor, partial curve, poor fit]

Question: Which “activity, negative = active” value does the source give for `CC1=C(C(N)=O)C(c2ccncc2)n2nc(-c3ccccc3Cl)nc2N1` (stereo unspecified) here?
Answer: inactive: 1.16%

Question: With `CCN(CC)CCn1c2c(c(SCC(=O)Nc3nc(C)cs3)nc1=O)CCC2` as the compound, how does the “activity, negative = active” value read?
Answer: inactive: 4.66%

Question: With `COc1ccccc1NS(=O)(=O)c1cc([N+](=O)[O-])ccc1N/N=C/c1c(C)[nH]c2ccccc12` as the compound, how does the Potency read?
Answer: inconclusive: 10 µM [inhibitor, partial curve, poor fit]

Question: For `CN(C)c1ccc(/C=N/n2c(C3CCCCC3)n[nH]c2=S)cc1`, which “activity, negative = active” value is on record?
Answer: inactive: 0.603%

Question: For `Cc1ccc(C)c(NC(=O)C(=O)NCCc2csc3nc(-c4ccccc4C)nn23)c1`, which Potency is on record?
Answer: inconclusive: 35.5 µM [inhibitor, single point]

Question: With `Cc1ccc2c(c1)C1NC(=S)NC(C)(O2)C1C(=O)Nc1ccc(Cl)cc1` (stereo unspecified) as the compound, how does the “activity, negative = active” value read?
Answer: inactive: -2.01%

Question: For `CCOC(=O)c1c(C)[nH]c(C(=O)OC/C(O)=C(\C#N)c2nc3ccccc3[nH]2)c1C`, which Potency is on record?
Answer: inconclusive: 35.5 µM [inhibitor, single point]

Question: For `CCN(CC)CCCNC(=O)c1cc2c(-c3ccc(Cl)cc3)nn(C)c2s1`, which Potency is on record?
Answer: inconclusive: 31.6 µM [inhibitor, single point]

Question: For `COc1ccccc1C1NC=C([N+](=O)[O-])C=C1[N+](=O)[O-]` (stereo unspecified), which Potency is on record?
Answer: inconclusive: 35.5 µM [inhibitor, single point]

Question: For `COCC(=O)Nc1nc2ccc(C)cc2s1`, which Potency is on record?
Answer: inconclusive: 12.6 µM [inhibitor, partial curve]

Question: With `CCOC(=O)NC(=S)Nc1ccc(C(C)(C)C)cc1` as the compound, how does the Potency read?
Answer: inconclusive: 25.1 µM [inhibitor, single point]

Question: For `COc1ccc(OCc2nnc(SCC(N)=O)n2N)cc1`, which Potency is on record?
Answer: inconclusive: 35.5 µM [inhibitor, single point]

Question: With `COc1ccccc1C(=O)Nc1c(C(=O)N(C)c2ccccc2)sc2nc(C)cc(C)c12` as the compound, how does the “activity, negative = active” value read?
Answer: inactive: 2.85%

Question: Which “activity, negative = active” value does the source give for `COC(=O)N1C(=O)[C@](CC(C)C)(c2ccccc2)N1C(=O)OC` here?
Answer: inactive: 4.13%

Question: Which “activity, negative = active” value does the source give for `O=C(/C=C/c1ccco1)Nc1ccc(N2CCCC2)cc1` here?
Answer: inactive: -2.8%

Question: For `COc1cccc(CNC(=O)CN2C(=O)COc3ccc(S(=O)(=O)Nc4ccccc4)cc32)c1`, which “activity, negative = active” value is on record?
Answer: inactive: -0.301%

Question: With `Cc1nn(CC(=O)N(C)C2CCS(=O)(=O)C2)c(C)c1[N+](=O)[O-]` (stereo unspecified) as the compound, how does the Potency read?
Answer: inconclusive: 7.94 µM [inhibitor, partial curve, poor fit]
